Experimental findings from article PMC3192040 are described below.

Chains of the proteins cited; added tags and fusions are not shown. Lines headed by an entry give the natural chain unless they say otherwise; changes in a name come on top. A line that says so, or that is headed by a name, gives the form on record, which may keep a tag or linker.
HSV-tagged SP100A (P23497-2, form named): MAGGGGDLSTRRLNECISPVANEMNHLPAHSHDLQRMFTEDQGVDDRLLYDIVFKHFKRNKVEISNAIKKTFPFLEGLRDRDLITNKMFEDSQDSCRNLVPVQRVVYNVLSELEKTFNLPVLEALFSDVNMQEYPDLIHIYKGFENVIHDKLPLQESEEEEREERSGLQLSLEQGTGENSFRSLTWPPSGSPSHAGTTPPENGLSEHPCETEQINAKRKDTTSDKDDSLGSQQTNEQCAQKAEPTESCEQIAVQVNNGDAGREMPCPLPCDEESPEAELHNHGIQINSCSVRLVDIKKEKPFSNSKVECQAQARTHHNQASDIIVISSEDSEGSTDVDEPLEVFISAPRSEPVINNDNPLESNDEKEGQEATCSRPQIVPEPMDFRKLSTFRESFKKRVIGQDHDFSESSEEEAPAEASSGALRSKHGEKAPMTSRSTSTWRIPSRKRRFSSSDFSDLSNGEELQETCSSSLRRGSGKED

Numbering of substitutions follows the chain as printed. These are yes or no findings as the source states them, for the method shown. Binding seen in cells or lysates may run through a third protein. Some binding calls cover weakened binding; strength is not graded here. Sequences can lack the tags named with a protein.

In one assay the target is T1, V5-tagged FOXL2-KFULL (UniProt P58012).
T1 sequence: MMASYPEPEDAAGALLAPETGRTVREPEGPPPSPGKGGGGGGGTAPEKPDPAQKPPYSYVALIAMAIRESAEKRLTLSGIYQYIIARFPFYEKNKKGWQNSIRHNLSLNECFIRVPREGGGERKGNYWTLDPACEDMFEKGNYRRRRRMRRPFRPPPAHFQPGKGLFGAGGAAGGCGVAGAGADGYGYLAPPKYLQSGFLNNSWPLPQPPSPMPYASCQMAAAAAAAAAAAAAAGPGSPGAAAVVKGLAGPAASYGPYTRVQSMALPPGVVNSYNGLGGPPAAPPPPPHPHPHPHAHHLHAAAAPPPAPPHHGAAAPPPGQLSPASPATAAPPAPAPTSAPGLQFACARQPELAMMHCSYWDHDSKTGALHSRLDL
Nature of the assay: co-IP; SP100-HSV co-expressed with V5-tagged FOXL2-WT or KFULL; FOXL2 precipitated with anti-V5-conjugated affinity resin; blot with anti-HSV and anti-FOXL2.

Another assay deals with T2, V5-tagged FOXL2-WT (UniProt P58012).
T2 sequence: T1 sequence with R25K, R87K, R114K, R150K
The description is as above.

“HSV-tagged SP100A (from UniProt P23497-2 1-480)”: the binding entry in the assay with V5-tagged FOXL2-KFULL and in the assay with V5-tagged FOXL2-WT was “binds” throughout.
